{"source": "PubChem BioAssay AID190", "about": "(DTP/NCI, 2004)", "tested_on": "AKR/Lw mice, AKR lymphoma ip, median survival T/C", "test": "NCI In Vivo Anticancer Drug Screen. Data for tumor model Lymphoma AKR (Transplanted) (intraperitoneal) in AKR/Lw mice", "details": "T/C endpoint: median survival time, higher T/C = longer survival", "experimental": "The antitumor activity of compounds was measured in mice bearing transplantable tumors. Survival or tumor size were measured and the results are expressed as the measurement made in the treated group (T) divided by the measurement made in the vehicle treated control group (C). The tumor model used in this assay is Lymphoma AKR (Transplanted) (intraperitoneal) in AKR/Lw mice", "note": "The list shows only some results of the screen, not a fair sample: it gathers some chemical classes. Other doses and runs of a compound may be missing. T/C is the treated group as % of the vehicle group. For survival time, this PubChem deposit counts one and a half times the control or more as active, and values a quarter to a half above the control carry no call in these data; other NCI protocols may use other cut-offs. Schedule codes are those of the source, read here as Q, the interval in days (D) or hours (H), X, the number of doses. Some entries show no survivor count and are marked so; the dose need not have been tolerated. Some doses were run more than once; their values stand side by side, smallest first."}
{"compound": "CC(=O)OCC12CCC(C)=CC1OC1C(O)C(OC(C)=O)C2(C)C12CO2", "note": "(centres undefined)", "values": [{"measurement": "T/C", "setting": "dose: 0.03 mg/kg/injection, schedule: Q04DX003 (ip), vehicle: saline", "value": "105 % of control [survivor count not shown]"}, {"measurement": "T/C", "setting": "dose: 0.06 mg/kg/injection, schedule: Q04DX003 (ip), vehicle: saline", "value": "113 % of control [survivor count not shown]"}, {"measurement": "T/C", "setting": "dose: 0.15 mg/kg/injection, schedule: Q04DX003 (ip), vehicle: saline", "value": "105 % of control [survivor count not shown]"}, {"measurement": "T/C", "setting": "dose: 0.2 mg/kg/injection, schedule: Q01DX009 (ip), vehicle: saline", "value": "92 [survivor count not shown] and 191 % of control [survivor count not shown]"}, {"measurement": "T/C", "setting": "dose: 0.25 mg/kg/injection, schedule: Q04DX003 (ip), vehicle: saline", "value": "104 [survivor count not shown], 108 [survivor count not shown], 114 % of control [survivor count not shown]"}, {"measurement": "T/C", "setting": "dose: 0.4 mg/kg/injection, schedule: Q01DX009 (ip), vehicle: saline", "value": "133 % of control [survivor count not shown]"}, {"measurement": "T/C", "setting": "dose: 0.5 mg/kg/injection, schedule: Q04DX003 (ip), vehicle: saline", "value": "87 [survivor count not shown], 102 [survivor count not shown], 131 % of control [survivor count not shown]"}, {"measurement": "T/C", "setting": "dose: 0.62 mg/kg/injection, schedule: Q04DX003 (ip), vehicle: saline", "value": "97 % of control [survivor count not shown]"}, {"measurement": "T/C", "setting": "dose: 0.75 mg/kg/injection, schedule: Q01DX009 (ip), vehicle: saline", "value": "115 % of control [survivor count not shown]"}, {"measurement": "T/C", "setting": "dose: 1.0 mg/kg/injection, schedule: Q01DX001 (ip), vehicle: saline", "value": "96 [survivor count not shown] and 106 % of control [survivor count not shown]"}, {"measurement": "T/C", "setting": "dose: 1.0 mg/kg/injection, schedule: Q01DX009 (ip), vehicle: saline", "value": "91 [survivor count not shown] and 107 % of control [survivor count not shown]"}, {"measurement": "T/C", "setting": "dose: 1.0 mg/kg/injection, schedule: Q04DX003 (ip), vehicle: saline", "value": "102 [survivor count not shown], 109 [survivor count not shown], 113 [survivor count not shown], 116 [survivor count not shown], 128 % of control [survivor count not shown]"}, {"measurement": "T/C", "setting": "dose: 1.2 mg/kg/injection, schedule: Q04DX003 (ip), vehicle: saline", "value": "139 % of control [survivor count not shown]"}, {"measurement": "T/C", "setting": "dose: 1.25 mg/kg/injection, schedule: Q01DX001 (ip), vehicle: saline", "value": "118 % of control [survivor count not shown]"}, {"measurement": "T/C", "setting": "dose: 1.25 mg/kg/injection, schedule: Q04DX003 (ip), vehicle: saline", "value": "127 % of control [survivor count not shown]"}, {"measurement": "T/C", "setting": "dose: 1.5 mg/kg/injection, schedule: Q01DX001 (ip), vehicle: saline", "value": "100 % of control [survivor count not shown]"}, {"measurement": "T/C", "setting": "dose: 2.0 mg/kg/injection, schedule: Q01DX001 (ip), vehicle: saline", "value": "103 [survivor count not shown] and 134 % of control [survivor count not shown]"}, {"measurement": "T/C", "setting": "dose: 2.0 mg/kg/injection, schedule: Q04DX003 (ip), vehicle: saline", "value": "87 [survivor count not shown], 104 [survivor count not shown], 142 % of control [survivor count not shown]"}, {"measurement": "T/C", "setting": "dose: 2.5 mg/kg/injection, schedule: Q01DX001 (ip), vehicle: saline", "value": "105 % of control [survivor count not shown]"}, {"measurement": "T/C", "setting": "dose: 2.5 mg/kg/injection, schedule: Q04DX003 (ip), vehicle: saline", "value": "122 [survivor count not shown], 134 [survivor count not shown], 138 [survivor count not shown], 141 % of control [survivor count not shown]"}, {"measurement": "T/C", "setting": "dose: 3.0 mg/kg/injection, schedule: Q01DX001 (ip), vehicle: saline", "value": "90 % of control [survivor count not shown]"}, {"measurement": "T/C", "setting": "dose: 4.0 mg/kg/injection, schedule: Q01DX001 (ip), vehicle: saline", "value": "100 % of control [survivor count not shown]"}, {"measurement": "T/C", "setting": "dose: 4.0 mg/kg/injection, schedule: Q04DX003 (ip), vehicle: water", "value": "144 % of control [survivor count not shown]"}, {"measurement": "T/C", "setting": "dose: 5.0 mg/kg/injection, schedule: Q04DX003 (ip), vehicle: saline", "value": "110 [survivor count not shown], 152 [survivor count not shown], 161 % of control [survivor count not shown]"}, {"measurement": "T/C", "setting": "dose: 6.0 mg/kg/injection, schedule: Q01DX001 (ip), vehicle: saline", "value": "119 % of control [survivor count not shown]"}, {"measurement": "T/C", "setting": "dose: 7.5 mg/kg/injection, schedule: Q04DX003 (ip), vehicle: saline", "value": "150 % of control [survivor count not shown]"}, {"measurement": "T/C", "setting": "dose: 10.0 mg/kg/injection, schedule: Q01DX001 (ip), vehicle: saline", "value": "107 % of control [survivor count not shown]"}, {"measurement": "T/C", "setting": "dose: 15.0 mg/kg/injection, schedule: Q01DX001 (ip), vehicle: saline", "value": "113 % of control [survivor count not shown]"}, {"measurement": "T/C", "setting": "dose: 20.0 mg/kg/injection, schedule: Q01DX001 (ip), vehicle: saline", "value": "120 % of control [survivor count not shown]"}]}
